Data on three molecules can be found in US20160009801A1 (EMORY UNIVERSITY, published 2016).

Protein sequences, listed by entry. Tags and fused reporters are not part of them. Residues count along the entry.
UniProt P07359, residues 17-652: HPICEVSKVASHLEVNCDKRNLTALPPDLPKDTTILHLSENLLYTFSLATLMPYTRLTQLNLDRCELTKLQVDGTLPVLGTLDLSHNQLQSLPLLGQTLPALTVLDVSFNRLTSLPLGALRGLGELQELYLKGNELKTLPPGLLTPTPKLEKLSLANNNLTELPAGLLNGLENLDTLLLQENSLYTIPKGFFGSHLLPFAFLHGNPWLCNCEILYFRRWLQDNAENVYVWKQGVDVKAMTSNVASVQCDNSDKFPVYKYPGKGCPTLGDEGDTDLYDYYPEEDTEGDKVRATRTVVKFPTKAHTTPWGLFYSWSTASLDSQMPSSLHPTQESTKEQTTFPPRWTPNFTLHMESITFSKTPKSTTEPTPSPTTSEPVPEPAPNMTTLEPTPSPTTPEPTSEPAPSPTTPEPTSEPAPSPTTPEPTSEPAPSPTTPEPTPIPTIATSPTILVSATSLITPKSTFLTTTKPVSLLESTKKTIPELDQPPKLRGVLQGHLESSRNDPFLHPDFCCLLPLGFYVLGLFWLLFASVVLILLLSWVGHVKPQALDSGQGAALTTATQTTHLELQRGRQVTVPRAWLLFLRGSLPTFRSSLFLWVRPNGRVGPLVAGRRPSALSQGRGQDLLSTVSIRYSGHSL

No constants are given. Whether binding was seen depends on the method and setting. Some results given as binding are weak or reduced against the parent protein; the word gives no strength.

B1: monoclonal antibody 1H5 (antibody, IgG3, V domains shown)
VH: EVKLVESGGGLVKPGGSLKLSCAASGFAFSSYDMSWVRQTPEKRLEWVATISSGGSYTFYPESVKGRITVYRDNARNTLYLQMSSLRSEDTALYYCATLHYNYERGAVDYWGQGTSVTVSS
VL: DVVVTQTPSSMYASLGERVSITCKASQDINRYLSWIQQKPGKSPKTLIYRTDRLVEGAPSRFSGSGSGQDYSLTISSLEYEDMGIYNCLQYDEFPVTFGAGTKLEIKR
B2: monoclonal antibody 2B9 (antibody, IgG2b, V domains shown)
VH: IQLVQSGPELKKPGETVKISCKASGYTFTDYAMHWVKQAPAKGLKWMGWINTETGEPTYADDFKGRFAFSLETSASTAYLQINNLKNEDTATYFCAGDPLDYWGQGTTLTVSS
VL: DVVVTQTPLSLPVSFGDQVSISCRSSQSLANSYGNTYLSWYLHKPGQSPQLLIYEISNRFSGVSDRFSGSGSGTDFTLKISTIKPEDLGIYYCLQGTHQPWTFGGGTKLEIK
B3: monoclonal antibody 2D2 (antibody, V domains shown)
VH: QIQLVQSGPELKKPGETVKISCKASGYTFTDYAMHWVKQAPAKGLKWMGWINTETGEPTYADDFKGRFAFSLETSASTAYLQINNLKNEDTATYFCAGDPLDYWGQGTTLTVSS
VL: B2 VL

In the test the target is human glycoprotein Ib alpha (GPIba) on platelets (human) (UniProt P07359). The experiment in a line: flow cytometry on washed human platelets, FITC goat anti-mouse IgG.
Regarding B1, the binding result is reported as “binds”.

For the molecule B2, the binding result is recorded as “binds”.

B3: the binding entry is listed as “binds”.
